Test results published in PubChem BioAssay AID588590 (National Center for Advancing Translational Sciences (NCATS), 2011).
About 4,000 (1%) of roughly 390,000 compounds were called active. This list was built around the results that the source calls inconclusive (neither active nor inactive); the mix of calls is not that of the screen. Calls come from the whole dose curve; as a rule, active = well fitted inhibition curve with a large enough effect; inconclusive = small, poorly fitted or top-dose-only effect, or another doubt; inactive = no such curve, though single readings can be large or run the other way. Potencies beside an inconclusive call are fits to weak or partial responses and may not hold up.

Chains of the proteins cited; added tags and fusions are not shown. Lines headed by an entry give the natural chain unless they say otherwise; changes in a name come on top.
UniProt Q9UNA4: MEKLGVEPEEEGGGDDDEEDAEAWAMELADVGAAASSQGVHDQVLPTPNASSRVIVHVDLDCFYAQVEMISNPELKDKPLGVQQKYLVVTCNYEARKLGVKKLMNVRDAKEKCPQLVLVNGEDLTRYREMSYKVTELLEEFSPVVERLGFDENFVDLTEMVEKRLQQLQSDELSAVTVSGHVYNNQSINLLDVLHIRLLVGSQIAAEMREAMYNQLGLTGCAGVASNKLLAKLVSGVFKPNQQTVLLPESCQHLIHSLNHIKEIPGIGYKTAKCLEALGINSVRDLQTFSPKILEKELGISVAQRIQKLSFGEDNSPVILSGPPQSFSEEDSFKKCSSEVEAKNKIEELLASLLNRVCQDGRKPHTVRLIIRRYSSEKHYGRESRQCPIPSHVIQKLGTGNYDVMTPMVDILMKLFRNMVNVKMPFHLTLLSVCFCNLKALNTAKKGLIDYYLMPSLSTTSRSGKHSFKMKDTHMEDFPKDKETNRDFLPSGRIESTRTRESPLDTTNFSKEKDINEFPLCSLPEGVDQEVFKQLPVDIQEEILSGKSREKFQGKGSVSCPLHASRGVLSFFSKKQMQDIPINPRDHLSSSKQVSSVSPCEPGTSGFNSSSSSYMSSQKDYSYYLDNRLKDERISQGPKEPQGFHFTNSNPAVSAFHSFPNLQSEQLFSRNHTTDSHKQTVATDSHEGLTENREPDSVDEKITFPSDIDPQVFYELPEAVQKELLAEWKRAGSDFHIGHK

These compounds were tested against DNA polymerase iota (Homo sapiens) (UniProt Q9UNA4) (assay: qHTS for Inhibitors of Polymerase Iota). Conditions: Pol iota fluorescent replication assay, 10 min; series mostly up to 115 µM; activity, negative = inhibition: at the top concentration.
Description: DNA polymerases, such as Pol iota, are specifically involved in DNA repair. Pol iota specifically plays an important role in translesion synthesis, where the normal high-fidelity DNA polymerases cannot proceed and DNA synthesis stalls. […] Thus, while pol eta's (and most likely iota's) normal function is to protect humans against the deleterious consequences of DNA damage, under certain conditions they can have deleterious effects on human health. As a consequence, we propose to utilize a high throughput replication assay to identify small molecule inhibitors of pol iota.
In a collaboration between the National Institute of Child Health & Human Development (NICHD) and NIH Chemical Genomics Center, a high-throughput, fluorescent screen was developed to screen the NIH Molecular Libraries Small Molecule Repository (MLSMR). This screen is used to identify inhibitors of pol iota.
NIH Chemical Genomics Center [NCGC]
NIH Molecular Libraries Probe Centers Network [MLPCN]
Assay Submitter (PI): Roger Woodgate, NICHD)
Three microliters of reagents (buffer in column 3 and 4 as negative control and 10 nM Pol iota in columns 1, 2, and 5-48) will be dispensed into 1,536-well black solid-bottomed plate. Compounds (23 nL) will be transferred via Kalypsys pin tool equipped with 1536-pin array. The plates will then be incubated for 15 min at room temperature, and 1 µL substrate (50 nM final concentration) will be added to start the reaction and kinetically read twice at 0 min and 10 min on the Viewlux reader.
Potency is the fitted concentration of half-maximal effect.

activity, negative = inhibition, inactive:
COC(=O)c1cc(OC)c(OC)cc1N 11.7%
O=C(CSc1nnc(-c2ccncc2)n1-c1ccccc1Cl)Nc1ccc(C(=O)O)cc1 23.1%
CCC(C)NC(=O)CCCN1C(=O)CCn2nc(-c3cccn3C)cc21 (configuration not stated) 30.5%
CC(C)(C)n1ncc2c(=O)n(Cc3cccc(Cl)c3Cl)cnc21 19.9%
CCN(CC)CCn1c2ccccc2c2n[nH]c(=S)nc21 42.7%
F[B-](F)(F)c1cc2cc(Br)ccc2s1 7.74%
Oc1[nH]c2ccc(Br)cc2c1N=NC(=S)N1CCOCC1 8.53%
COc1ccc(C(=O)NNC(=O)CN2CCC(n3nnc4cc(C(F)(F)F)ccc43)CC2)cc1 14.8%
Cc1cccc(N(C)c2nc3ccccc3c3nnc(C)n23)c1 40.4%
CCCCOc1ccc(N(CC(=O)NC2CCCCC2)C(=O)c2snc(C(N)=O)c2N)cc1 169%
COc1ccc(-n2nc(C(=O)Nc3ccccn3)c3c4ccccc4n(C)c3c2=O)cc1 29.3%
CC(C)CC(=O)NC(c1cccs1)c1ccc2cccnc2c1O (configuration not stated) 94.6%
O=C1c2ccc(-c3ccc(F)cc3OCc3ccccc3)cc2S(=O)(=O)c2cccc(C(=O)N3CCCC3)c21 10.8%
O=C(NCCc1ccc(Cl)cc1)c1c2c(nc3ccccc13)C(=O)N(C1CCCCC1)C2 5.34%
COc1cc(C(CC(=O)Nc2ccc(C)c(F)c2)N2Cc3ccccc3C2=O)cc(OC)c1OC (configuration not stated) 35.9%
CCOC(=O)c1c(C)[nH]c(C)c1S(=O)(=O)N(C)CC(=O)Nc1ccc(OC)cc1 26%
O=C(Nc1ccc(C(F)(F)F)cc1)c1ccc2nc[nH]c2c1 -28%
O=C(CCCCn1ccc(=O)[nH]c1=O)Nc1ccc(O)c(C(=O)O)c1 47%
COc1cc(NC(=O)Cn2nc(C(F)(F)F)c3c2CCC3)cc(OC)c1OC -19.3%
CCCOc1ccc(C2C(=O)N(C3CCCCCC3)CC(=O)N2Cc2ccccc2OC)cc1OC (configuration not stated) 25.4%
COc1cc(NC(=O)CC2C(=O)N(c3ccccc3)C(=O)N2Cc2ccc(F)cc2)cc(OC)c1 (configuration not stated) 7.13%

Potency, active:
CN(C)NC(=O)C(NC(=O)c1ccc(N)cc1)C12CC3CC(CC(C3)C1)C2 (configuration not stated) 35.5 µM
CCC(=O)N(CCC(c1ccc(C)cc1)c1ccco1)Cc1ccco1 (configuration not stated) 44.7 µM

Potency, inconclusive:
O=C(Nc1ccc(F)cc1)Nc1ccc(NC(=O)c2ccccc2O)cc1 100 µM [inhibitor, partial curve, poor fit]
COCCNC(=O)c1c[nH]c2ccc(S(=O)(=O)Nc3ccccc3F)cc2c1=O 56.2 µM [inhibitor, partial curve, poor fit]
CCCCCCCCCCOC(=O)Cn1c(COc2ccccc2)[n+](C)c2ccccc21 22.4 µM [inhibitor, partial curve, poor fit]
CC(=O)O/N=C(\N)c1cnn2c(C(F)(F)F)cc(C(F)(F)F)nc12 44.7 µM [inhibitor, partial curve, poor fit]
Cc1ncc(CO)c2c1Oc1nc(-c3ccccc3F)nc(SCC(=O)N(C)c3ccccc3)c1C2 5.01 µM [inhibitor, full curve, poor fit]
N#Cc1ccccc1OCc1cn(CC(=O)c2ccc(O)cc2)nn1 17.8 µM [inhibitor, partial curve, poor fit]
Cc1ccc(C(=O)Nc2ccc(O)cc2C(=O)O)cc1 11.2 µM [inhibitor, partial curve, poor fit]
CC(=O)N/C(=C\c1ccccc1)C(=O)NCC(=O)O 89.1 µM [inhibitor, single point]
COc1cc2sc(-c3ccc(S(C)(=O)=O)cc3)c(C#CCO)c2cc1OC 31.6 µM [inhibitor, full curve]
Cc1cccc(-c2cc(=O)c(C(=O)O)cn2-c2ccc(F)cc2F)c1 39.8 µM [inhibitor, single point]
CCOc1ccccc1NC(=O)CSC1=NN2CCCC(=O)N=C2S1 56.2 µM [inhibitor, partial curve, poor fit]
CN(C)CCO/N=C(\c1ccc(Br)cc1)c1cccnc1 35.5 µM [inhibitor, partial curve, poor fit]
C[C@]12c3[nH]c4ccccc4c3CCN1C(=O)C(CC(=O)NCc1ccco1)C[C@@H]2C(=O)N1CCCCC1 (some centres not stated) 79.4 µM [inhibitor, single point]
Nc1c(C(=O)NCc2ccco2)sc2nc3c(cc12)C(=O)CCC3 12.6 µM [inhibitor, full curve, poor fit]
COc1ccccc1NC(=O)CCC(=O)OCc1ccc(Br)cc1 89.1 µM [inhibitor, single point]
O=C(NNC(=O)c1ccc(NC(=O)c2ccccc2)cc1)c1ccccc1 56.2 µM [inhibitor, partial curve, poor fit]
CCC(=O)N1CCN(c2cc(N3CCCC3)c(F)cc2[N+](=O)[O-])CC1 1.58 µM [inhibitor, full curve, poor fit]
Cc1ccc(C(=O)Nc2ccc3c(c2)OCO3)o1 39.8 µM [inhibitor, single point]
O=C(CCn1c(=O)oc2ccccc21)NC1=NCCS1 112 µM [inhibitor, single point]
O=C(CN1CCN(c2ccccc2)CC1)N/N=C/c1cccc(F)c1 89.1 µM [inhibitor, partial curve, poor fit]
Clc1ccc(-c2nc3ccccn3c2CN2CCCCC2)cc1 56.2 µM [inhibitor, partial curve, poor fit]
COc1cc(OC)c(/C=C/c2ccc3ccccc3[n+]2C)c(OC)c1 56.2 µM [inhibitor, partial curve, poor fit]
O=C1NC(=O)N2CCSC2(Cc2ccccc2)N1 (configuration not stated) 28.2 µM [inhibitor, single point]
Cc1c(C(=O)N/N=C/c2ccc(O)c(Br)c2)sc(N)c1C#N 39.8 µM [inhibitor, single point]
O=C1C=C(O)CC(c2cccs2)C1 (configuration not stated) 31.6 µM [inhibitor, full curve, poor fit]
COc1cc(SC)ccc1C(=O)N1CCN(S(=O)(=O)/C=C/c2ccccc2)CC1 0.631 µM [inhibitor, full curve, poor fit]
O=C(NNC(=O)C1CCN(c2ncccn2)CC1)c1ccncc1 39.8 µM [inhibitor, partial curve, poor fit]
CCCCSc1nc(O)c(C2OC(=O)c3c2ccc(OC)c3OC)c(=O)n1C (configuration not stated) 0.631 µM [inhibitor, full curve, poor fit]
COc1cc(/C=C2\C(=O)N(CCC#N)N=C2C)ccc1OCC(=O)Nc1ccccc1 1.58 µM [inhibitor, full curve, poor fit]
CCC[N+](C)(C)c1ccc(/C=C/c2ccnc3ccccc23)cc1 25.1 µM [inhibitor, partial curve, poor fit]
CCn1c(SCC(=O)Nc2ccc(C(=O)OC)cc2)nnc1-c1cccs1 79.4 µM [inhibitor, partial curve]
CC(C)CCNC(=O)Cn1c(NCCC(C)C)nc2c1c(=O)n(C)c(=O)n2C 50.1 µM [inhibitor, partial curve, poor fit]
Cc1cc(OCC(=O)Nc2ccc(N3CCN(C(=O)c4ccco4)CC3)cc2)cc(C)c1Cl 12.6 µM [inhibitor, partial curve, poor fit]
O=C(Nc1cc([N+](=O)[O-])ccc1C(=O)Nc1cccnc1)c1ccccc1 25.1 µM [inhibitor, partial curve, poor fit]
O=C(/C=C/c1ccco1)NC(=S)Nc1ccc(C(=O)O)cc1 10 µM [inhibitor, full curve, poor fit]
Cc1ccccc1NC(=O)Cn1cc(C(=O)c2ccco2)c2ccccc21 89.1 µM [inhibitor, partial curve]
COc1ccc2cc(-c3nc4ccccc4n3C)c(=O)oc2c1 44.7 µM [inhibitor, partial curve, poor fit]
O=C(C=Cc1cccs1)c1ccc(Cl)s1 39.8 µM [inhibitor, single point]
COc1cc2c(NC3CCN(C)CC3)nc(N3CCCN(C)CC3)nc2cc1OCCCN(C)C 50.1 µM [inhibitor, partial curve]
CC(=O)c1cc(CCC(=O)NC2CCCCCC2)oc1C 25.1 µM [inhibitor, single point]
O=S(=O)(NCCC(c1ccc(F)cc1)c1ccco1)c1ccccc1 (configuration not stated) 56.2 µM [inhibitor, partial curve, poor fit]
CC1CCCC(C)N1CC(O)COC1CCC(C(C)(C)C)CC1 (configuration not stated) 44.7 µM [inhibitor, partial curve, poor fit]
C=C(C)C(=O)Oc1ccc(N=Nc2ccc(C)cc2)ccc1=O 7.94 µM [inhibitor, full curve, poor fit]
c1ccc2c3c(c(CN4CCCC4)cc2c1)COC3 100 µM [inhibitor, partial curve, poor fit]

An excerpt from above in order of molar mass, ascending.
Potency, inconclusive:
O=C1C=C(O)CC(c2cccs2)C1 (configuration not stated) 31.6 µM [inhibitor, full curve, poor fit]
O=C1NC(=O)N2CCSC2(Cc2ccccc2)N1 (configuration not stated) 28.2 µM [inhibitor, single point]
CC(=O)c1cc(CCC(=O)NC2CCCCCC2)oc1C 25.1 µM [inhibitor, single point]
COc1ccc2cc(-c3nc4ccccc4n3C)c(=O)oc2c1 44.7 µM [inhibitor, partial curve, poor fit]
Clc1ccc(-c2nc3ccccn3c2CN2CCCCC2)cc1 56.2 µM [inhibitor, partial curve, poor fit]
COc1cc(OC)c(/C=C/c2ccc3ccccc3[n+]2C)c(OC)c1 56.2 µM [inhibitor, partial curve, poor fit]
O=C(CN1CCN(c2ccccc2)CC1)N/N=C/c1cccc(F)c1 89.1 µM [inhibitor, partial curve, poor fit]
CN(C)CCO/N=C(\c1ccc(Br)cc1)c1cccnc1 35.5 µM [inhibitor, partial curve, poor fit]
CCC(=O)N1CCN(c2cc(N3CCCC3)c(F)cc2[N+](=O)[O-])CC1 1.58 µM [inhibitor, full curve, poor fit]
Cc1ccccc1NC(=O)Cn1cc(C(=O)c2ccco2)c2ccccc21 89.1 µM [inhibitor, partial curve]
O=C(Nc1cc([N+](=O)[O-])ccc1C(=O)Nc1cccnc1)c1ccccc1 25.1 µM [inhibitor, partial curve, poor fit]
O=C(Nc1ccc(F)cc1)Nc1ccc(NC(=O)c2ccccc2O)cc1 100 µM [inhibitor, partial curve, poor fit]
COc1cc2sc(-c3ccc(S(C)(=O)=O)cc3)c(C#CCO)c2cc1OC 31.6 µM [inhibitor, full curve]
CCCCSc1nc(O)c(C2OC(=O)c3c2ccc(OC)c3OC)c(=O)n1C (configuration not stated) 0.631 µM [inhibitor, full curve, poor fit]
COc1cc(SC)ccc1C(=O)N1CCN(S(=O)(=O)/C=C/c2ccccc2)CC1 0.631 µM [inhibitor, full curve, poor fit]
CCCCCCCCCCOC(=O)Cn1c(COc2ccccc2)[n+](C)c2ccccc21 22.4 µM [inhibitor, partial curve, poor fit]
Cc1ncc(CO)c2c1Oc1nc(-c3ccccc3F)nc(SCC(=O)N(C)c3ccccc3)c1C2 5.01 µM [inhibitor, full curve, poor fit]
